Data from PubChem BioAssay AID602313 (National Center for Advancing Translational Sciences (NCATS), 2012).
Hit rate of the full screen: of about 390,000 compounds, about 760 (0.19%) were called active. The shares of active, inactive and inconclusive entries below differ from those in the screen. Calls follow the shape of the dose curve; as a rule, active = well fitted inhibition curve with a large enough effect; inconclusive = small, poorly fitted or top-dose-only effect; inactive = flat fitted curve, though single readings scatter. Potencies of inconclusive entries are doubtful fits and often do not repeat.

Assay: qHTS for Inhibitors of Vif-A3F Interactions: qHTS; also: nearly all actives have a fitted effect of over 65% in size
Details: HeLa A3F-eYFP + Vif (tagged APOBEC3F with the HIV-1 protein that degrades it), YFP fluorescence increase; series mostly up to 46.1 µM
Summary of the method: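 HeLa cells stably expressing Vif plus C-terminally eYFP-tagged A3F were seeded, incubated overnight at 37 deg C, dosed with compound, incubated overnight again at 37 deg C. Yellow fluorescence (Ex 488/Em 500-530) reported blocked Vif-mediated A3F-eYFP degradation.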
Potency is read from the fitted curve at half-maximal effect.

| Compound | Potency |
| --- | --- |
| O=c1c2ccccc2nc(/C=C/c2ccccc2O)n1-c1ccc(Br)cc1 | active: 10 µM |
| C/C(=N\N1CCCCC1c1cccnc1)c1c(O)n(C2CCCCC2)c(=S)[nH]c1=O (stereo not drawn) | inconclusive: 25.1 µM [inhibitor, single point] |
| CC(C)N1CCN(Cc2cc3c(cc2Cl)OCO3)CC1CCO (stereo not drawn) | inconclusive: 2.82 µM [inhibitor, full curve] |
| O=[N+]([O-])c1ccc(N2CCNCC2)cc1Sc1ccccn1 | inconclusive: 12.6 µM [inhibitor, partial curve, poor fit] |
| CC1=NCCc2c1[nH]c1cc(O)ccc21 | inconclusive: 10 µM [inhibitor, partial curve, poor fit] |
| O=C(COC(=O)Cc1ccccc1)Nc1nnc(-c2ccccc2)o1 | inconclusive: 35.5 µM [inhibitor, single point] |
| O=c1[nH]c(CN2CC=C(c3ccccc3)CC2)nc2scc(-c3ccccc3)c12 | active: 10 µM |
| CCN(c1ccc(C)cc1C)S(=O)(=O)c1nnc(NC(=O)c2ccco2)s1 | inconclusive: 0.562 µM [inhibitor, full curve, poor fit] |
| COc1ccc(N2C(=O)NC(=O)/C(=C\c3cn(C)c4ccccc34)C2=O)cc1 | active: 22.4 µM |
| COC(=O)CSc1cc([N+](=O)[O-])cc2c1c(C1OCCO1)nn2-c1ccccc1 | inconclusive: 25.1 µM [inhibitor, single point] |
| CCN(CC(=O)Nc1ccccc1C(F)(F)F)C(=O)CCSc1ccc(F)cc1 | inconclusive: 6.31 µM [inhibitor, single point] |
| CC(C)c1ccc(N2C(=O)NC(=O)/C(=C\C=C\c3ccco3)C2=O)cc1 | inconclusive: 15.8 µM [inhibitor, partial curve, poor fit] |
| Cc1cccc(C(O)(C(=O)O)c2ccccc2)c1 (stereo not drawn) | inconclusive: 1.26 µM [inhibitor, partial curve, poor fit] |
| Cc1ccc(N2C(=O)NC(=O)/C(=C/c3cnn(-c4ccc(C)cc4)c3)C2=O)cc1 | inconclusive: 3.98 µM [inhibitor, partial curve, poor fit] |
| COc1ccc2nc(/N=C/c3c(O)n(-c4cccc(Cl)c4)c(=O)[nH]c3=O)sc2c1 | inconclusive: 35.5 µM [inhibitor, partial curve, poor fit] |
| Oc1ccccc1/C=N/NP(=S)(c1ccccc1)c1ccccc1 | inactive |
| CCC1(OC(=O)c2ccccc2)CC(C)N(C)CC1C (stereo not drawn) | inconclusive: 20 µM [inhibitor, single point] |
| Cn1cccc1/C=C1/C(=O)NC(=O)N(Cc2ccccc2)C1=O | inconclusive: 22.4 µM [inhibitor, single point] |
| COc1ccc(CCn2c(O)c(C=Nc3ccccc3F)c(=O)[nH]c2=O)cc1OC | inconclusive: 15.8 µM [inhibitor, single point] |
| CC[C@H](C)/C=C(C)/C=C/C1=CC2=C(Cl)C(=O)[C@@](C)(OC(C)=O)C(=O)C2=CO1 | inactive |
| Cc1ccc(-n2c(O)c(/C=C/C=Nc3ccccc3)c(=O)[nH]c2=O)cc1 | inconclusive: 22.4 µM [inhibitor, partial curve, poor fit] |
| O=C(NCc1c(-n2cccc2)sc2c1CCCC2)Nc1cccc(C(F)(F)F)c1 | inconclusive: 22.4 µM [inhibitor, single point] |
| Cc1ccc(NC(=O)c2snnc2C)cc1Cl | inconclusive: 0.355 µM [inhibitor, full curve, poor fit] |

In a second layout: entries from further up
O=[N+]([O-])c1ccc(N2CCNCC2)cc1Sc1ccccn1
  Potency: inconclusive: 12.6 µM [inhibitor, partial curve, poor fit]
CC1=NCCc2c1[nH]c1cc(O)ccc21
  Potency: inconclusive: 10 µM [inhibitor, partial curve, poor fit]

(cont.)

| Compound | Potency |
| --- | --- |
| CCc1ccccc1N1C(=O)/C(=C/c2ccc(N3CCN(C)CC3)o2)C(=O)NC1=S | inconclusive: 17.8 µM [inhibitor, single point] |
| CC(C)CC(N(C)C)C1(c2ccc(Cl)cc2)CCC1 (stereo not drawn) | inactive |
| CC1=C[C@@H]2c3cccc4[nH]cc(c34)C[C@H]2N(C)C1 | inconclusive: 15.8 µM [inhibitor, single point] |
| CC(C)n1c(=O)c(C=Nc2cccc([N+](=O)[O-])c2)c(O)n(CCc2ccccc2)c1=O | inconclusive: 35.5 µM [inhibitor, single point] |
| Cc1ccccc1-n1c(O)c(/C=C/C=Nc2ccccc2)c(=O)[nH]c1=O | active: 20 µM |
| CN1C2CCC1/C(=C/c1ccccn1)C(=O)/C2=C\c1ccccn1 | inactive |
| CN1C(=O)C(=Cc2ccc(Sc3ccccc3)o2)C(=O)N(C)C1=S | inconclusive: 17.8 µM [inhibitor, partial curve, poor fit] |
| O=c1c2ccccc2nc(/C=C/c2ccc(F)cc2)n1-c1ccccc1O | active: 22.4 µM |
| COC(=O)C1=C(C)N(Cc2ccco2)C(=O)/C1=C\c1ccc(N(C)C)cc1 | inconclusive: 3.98 µM [inhibitor, full curve, poor fit] |
| S=C(S)N1CCCC1 | inconclusive: 11.2 µM [inhibitor, single point] |
| Cn1cc(C(=O)N2CCCCC2)c2ccccc21 | inconclusive: 35.5 µM [inhibitor, single point] |
| O=[N+]([O-])c1cccc2c([As](=O)(O)O)cccc12 | inactive |
| CCC(=NCc1cc(OC)cc(OC)c1)c1c(O)n(C2CCCCC2)c(=O)[nH]c1=O | inconclusive: 12.6 µM [inhibitor, single point] |
| O=c1[nH]c(=S)[nH]c(O)c1/C=C1\C=Nc2ccccc21 | inconclusive: 5.01 µM [inhibitor, single point] |
| Nc1ccc2ccc3cccc[n+]3c2c1 | inconclusive: 2.82 µM [inhibitor, partial curve, poor fit] |
| O=C1NC(=O)N(CCc2ccc(F)cc2)C(=O)/C1=C\C=C\c1ccccc1 | inconclusive: 8.91 µM [inhibitor, partial curve, poor fit] |
| C=C(C)[C@@]12OC3(c4ccccc4)O[C@@H]1C1[C@@H]4O[C@]4(CO)[C@@H](O)[C@]4(O)C(=O)C(C)=C[C@H]4[C@@]1(O3)[C@H](C)[C@H]2OC(=O)/C=C/C=C/c1ccccc1 (stereo partly drawn) | inconclusive: 35.5 µM [inhibitor, partial curve, poor fit] |
| COc1ccc(CN2C(=O)NC(=O)/C(=C/c3ccc(OC)c(OC)c3OC)C2=O)cc1 | inactive |
| O=C(NC1CCCCC1)Oc1cc2oc(=O)sc2cc1Cl | inconclusive: 35.5 µM [inhibitor, single point] |
| COc1ccccc1-n1c(/C=C/c2ccc(O)cc2)nc2ccccc2c1=O | active: 10 µM |
| CCn1ccnc1CN1CCCC(C(=O)c2ccc(OC)cc2OC)C1 (stereo not drawn) | inactive |
| Cc1nn(Cc2ccccc2)c(C)c1C(=O)OCC(=O)NCc1ccco1 | inconclusive: 6.31 µM [inhibitor, single point] |
| CN1C(=O)C(=Cc2ccccc2OCc2ccccc2Cl)C(=O)N(C)C1=O | inactive |

Quoted from above, 2 compounds:

| Compound | Potency |
| --- | --- |
| Cc1nn(Cc2ccccc2)c(C)c1C(=O)OCC(=O)NCc1ccco1 | inconclusive: 6.31 µM [inhibitor, single point] |
| CN1C(=O)C(=Cc2ccccc2OCc2ccccc2Cl)C(=O)N(C)C1=O | inactive |

(list continues)

| Compound | Potency |
| --- | --- |
| Cc1ccccc1-n1c(/C=C/c2ccc(O)cc2)nc2ccccc2c1=O | inconclusive: 22.4 µM [inhibitor, single point] |
| COc1ccc(S(=O)(=O)N2c3ccc(F)cc3CCC2C)cc1 (stereo not drawn) | inconclusive: 17.8 µM [inhibitor, partial curve, poor fit] |
| O=C1NC(=O)N(c2ccc(F)cc2)C(=O)/C1=C/c1ccsc1 | inactive |
| O=C1CC(=O)N(Cc2ccccc2)C(=O)N1CCCCCCN1C(=O)CC(=O)N(Cc2ccccc2)C1=O | inconclusive: 22.4 µM [inhibitor, partial curve, poor fit] |
| CCN1C(=O)/C(=C/c2ccc(N(CC)CC)cc2OC)C(=O)NC1=S | active: 7.94 µM |
| CSc1ncc(/C=C2/C(=O)NC(=O)N(C3CCCCC3)C2=O)cn1 | inactive |
| OC1/C(=C/c2ccc(Cl)cc2Cl)N2CCC1CC2 (stereo not drawn) | inconclusive: 0.562 µM [inhibitor, full curve, poor fit] |
| COc1ccc(NC(=O)CN(C)C(=O)CSC(c2ccccc2)c2ccccc2)cc1 | inactive |
| CC(C)CCCn1c(O)c(/C=C2/C=CC=N2)c(=O)[nH]c1=O | active: 25.1 µM |
| Cc1ccc(N2C(=O)NC(=O)/C(=C\C=C\c3ccco3)C2=O)cc1C | active: 22.4 µM |
| COc1ccc(/C=C2/C(=O)NC(=O)N(c3ccccc3)C2=O)cc1CN1C(=O)c2ccccc2C1=O | inactive |
| Cc1c(CC(=O)N2C[C@H]3C[C@@H](C2)c2cccc(=O)n2C3)c(=O)oc2cc(O)c(Cl)cc12 | inactive |
| Nc1c(C(=O)NCCCc2ccccc2)c2nc3ccccc3nc2n1Cc1cccs1 | inconclusive: 35.5 µM [inhibitor, single point] |
| NCC(O)c1cc(O)c(O)cc1F (stereo not drawn) | inactive |
| CC(C)N1C(=O)CC2(CC[N+](C)(CCOC(=O)C(O)(c3ccccc3)c3ccccc3)CC2)C1=O (stereo not drawn) | inactive |
| Cc1cc(C)c(-n2c(O)c(/C=N/N3CCCCC3c3cccnc3)c(=O)[nH]c2=O)c(C)c1 (stereo not drawn) | inconclusive: 22.4 µM [inhibitor, single point] |
| CCCCCCn1c(O)c(C=NCCN2CCOCC2)c(=O)[nH]c1=O | inactive |
| CC(C)(C)OC(=O)c1c(N)n(Cc2ccco2)c2nc3ccccc3nc12 | inconclusive: 35.5 µM [inhibitor, single point] |
| O=C(NCC1=C(c2ccc3ccccc3c2)C[C@@H]2CC[C@H]1N2Cc1ccco1)c1ccc([N+](=O)[O-])cc1 | inactive |
| C=CCN1CCc2cccc3c2[C@H]1Cc1ccc(O)c(O)c1-3 | inactive |
| CC(Cc1ccccc1Sc1ccccc1O)N(C)C (stereo not drawn) | inconclusive: 2.82 µM [inhibitor, single point] |
| Cc1ccc2c(c1)C1CN(C)CCC1N2C(=O)c1cccs1 (stereo not drawn) | inactive |
